Measurements taken from the supplement of paper PMC4604168 (melanoma cell lines).
This is one part of the list. Many values rest on one well or one pass, so single values are uncertain.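 Cells were imaged in 1,536-well plates, and nuclei stained with an antibody against cleaved PARP were counted against all DNA-stained nuclei to give the apoptosis fraction. Screening doses were chosen to leave most cells alive, and resting and induced cleaved-PARP levels differ strongly between cell lines.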

test system: MeWo; assay: cleaved PARP positive nuclei fraction relative to DMSO control; melanoma cells; higher = more apoptosis; settings: library dose: low library concentration; 72 h

Structure (SMILES) | cleaved PARP positive nuclei fraction [%]
Oc1cc(-c2nc(-c3ccccc3)[nH]c2-c2ccncc2)ccc1Cl + c1cc(-c2cnn3cc(-c4ccc(OCCN5CCCCC5)cc4)cnc23)ccn1 [Dorsomorphin] (first compound 0.2 µM, partner dose 0.4 µM) | 114
Oc1nc(-c2ccc(C(F)(F)F)cc2)nc2c1CSCC2 + CCCCCCCCCCCC1=C(O)C(=O)C=C(O)C1=O [Embelin] (first compound 2 µM, partner dose 1.2 µM) | 47
CN(C)S(=O)(=O)c1ccc2c(c1)/C(=C/c1cc3c([nH]1)CCCC3)C(=O)N2 + CCN(CC)CCCCNc1ncc2cc(-c3cc(OC)cc(OC)c3)c(NC(=O)NC(C)(C)C)nc2n1 [PD173074] (first compound 0.4 µM, partner dose 0.1 µM) | 28.6
COc1ccc(-c2ccc3c(N4CCOCC4)nc(N4C[C@@H](C)O[C@@H](C)C4)nc3n2)cc1CO + O=c1cc(-c2cccc3c2Sc2ccccc2S3)oc(N2CCOCC2)c1 [KU55933] (first compound 0.02 µM, partner dose 1 µM) | 58.6
NCC(=O)Nc1ccc(-n2nc(C(F)(F)F)cc2-c2ccc3c(ccc4ccccc43)c2)cc1 + Cn1cc(/C=C2\C(=O)Nc3cccnc32)c2ccccc21 [GW441756] (first compound 1 µM, partner dose 0.4 µM) | 93.7
COc1ccc(-c2ccc3c(N4CCOCC4)nc(N4C[C@@H](C)O[C@@H](C)C4)nc3n2)cc1CO + CC(C)CCN1c2nc(Nc3cc(F)c(O)c(F)c3)ncc2N(C)C(=O)C1C [BID1870] (first compound 0.02 µM, partner dose 0.2 µM) | 186
CCN(CC)CCCCNc1ncc2cc(-c3cc(OC)cc(OC)c3)c(NC(=O)NC(C)(C)C)nc2n1 + Cc1cc([N+](=O)[O-])ccc1NS(=O)(=O)c1cc(Cl)ccc1Cl [FH535] (first compound 0.1 µM, partner dose 1 µM) | 122
COc1cc2c(Oc3ccc4[nH]c(C)cc4c3F)ncnc2cc1OCCCN1CCCC1 [cediranib] + CCN(CC)CCCCNc1ncc2cc(-c3cc(OC)cc(OC)c3)c(NC(=O)NC(C)(C)C)nc2n1 [PD173074] (first compound 0.4 µM, partner dose 0.1 µM) | 102
O=C(O)c1ccc(-c2c[nH]c3ncc(-c4ccccc4)cc23)cc1C1CCCC1 + Cn1cc(/C=C2\C(=O)Nc3cccnc32)c2ccccc21 [GW441756] (first compound 0.16 µM, partner dose 0.4 µM) | 128
O=C(O)c1ccc(-c2c[nH]c3ncc(-c4ccccc4)cc23)cc1C1CCCC1 + Oc1nc(-c2ccc(C(F)(F)F)cc2)nc2c1CSCC2 [XAV939] (first compound 0.16 µM, partner dose 2 µM) | 62.8
N#Cc1c(O)c2c(-c3ccc(-c4ccccc4O)cc3)csc2[nH]c1=O + COc1cc(N2CCC(N3CCN(C)CC3)CC2)ccc1Nc1ncc(Cl)c(Nc2ccccc2S(=O)(=O)C(C)C)n1 [NVP-TAE684] (first compound 2 µM, partner dose 0.08 µM) | 26.1
Oc1cc(-c2nc(-c3ccccc3)[nH]c2-c2ccncc2)ccc1Cl + COc1cc(N2CCC(N3CCN(C)CC3)CC2)ccc1Nc1ncc(Cl)c(Nc2ccccc2S(=O)(=O)C(C)C)n1 [NVP-TAE684] (first compound 0.2 µM, partner dose 0.08 µM) | 57.4
COc1ccc2c(c1)CCC1C2CCC2(C)C(NCCCCCCN3C(=O)C=CC3=O)CCC12 (stereo not given) + Oc1cc(-c2nc(-c3ccccc3)[nH]c2-c2ccncc2)ccc1Cl [L779450] (first compound 0.4 µM, partner dose 0.2 µM) | 57
COc1cc2c(Oc3ccc4[nH]c(C)cc4c3F)ncnc2cc1OCCCN1CCCC1 [cediranib] + Oc1cc(-c2nc(-c3ccccc3)[nH]c2-c2ccncc2)ccc1Cl [L779450] (first compound 0.4 µM, partner dose 0.2 µM) | 109
O=S(=O)(c1ccccc1)N(CC(F)(F)F)c1ccc(C(O)(C(F)(F)F)C(F)(F)F)cc1 + Cn1cc(/C=C2\C(=O)Nc3cccnc32)c2ccccc21 [GW441756] (first compound 1.4 µM, partner dose 0.4 µM) | 102
N#Cc1c(O)c2c(-c3ccc(-c4ccccc4O)cc3)csc2[nH]c1=O + CC(C)CCN1c2nc(Nc3cc(F)c(O)c(F)c3)ncc2N(C)C(=O)C1C [BID1870] (first compound 2 µM, partner dose 0.2 µM) | 103
O=S(=O)(c1ccccc1)N(CC(F)(F)F)c1ccc(C(O)(C(F)(F)F)C(F)(F)F)cc1 + Oc1cc(-c2nc(-c3ccccc3)[nH]c2-c2ccncc2)ccc1Cl [L779450] (first compound 1.4 µM, partner dose 0.2 µM) | 67.9
CN(NC(=O)CC(=O)NN(C)C(=S)c1ccccc1)C(=S)c1ccccc1 + COC(=O)c1sccc1S(=O)(=O)Nc1ccc(Nc2ccccc2)cc1OC [GSK0660] (first compound 0.006 µM, partner dose 1 µM) | 180
COc1cc2c(Oc3ccc4[nH]c(C)cc4c3F)ncnc2cc1OCCCN1CCCC1 [cediranib] + O=C(O)C(=O)Nc1sc2c(c1C(=O)O)CCNC2 [TCS401] (first compound 0.4 µM, partner dose 1.66667 µM) | 68.2
COC(=O)c1sccc1S(=O)(=O)Nc1ccc(Nc2ccccc2)cc1OC + CCCCCCCCCCCC1=C(O)C(=O)C=C(O)C1=O [Embelin] (first compound 1 µM, partner dose 1.2 µM) | 141

2 entries from above, as labelled records:
COc1ccc(-c2ccc3c(N4CCOCC4)nc(N4C[C@@H](C)O[C@@H](C)C4)nc3n2)cc1CO + CC(C)CCN1c2nc(Nc3cc(F)c(O)c(F)c3)ncc2N(C)C(=O)C1C [BID1870] (first compound 0.02 µM, partner dose 0.2 µM)
  cleaved PARP positive nuclei fraction [%]: 186
COc1ccc2c(c1)CCC1C2CCC2(C)C(NCCCCCCN3C(=O)C=CC3=O)CCC12 (stereo not given) + Oc1cc(-c2nc(-c3ccccc3)[nH]c2-c2ccncc2)ccc1Cl [L779450] (first compound 0.4 µM, partner dose 0.2 µM)
  cleaved PARP positive nuclei fraction [%]: 57
